Test results from paper PMC11277477.
No constants are given. Whether binding was seen depends on the method and setting. Binding seen in cells or lysates may run through a third protein. Here binding means that the protein was enriched with, or labelled near, the bait; the list need not be complete. For some of these results: Tags and fused reporters may be left off the sequences shown.

Chains of the proteins cited; added tags and fusions are not shown. Lines headed by an entry give the natural chain unless they say otherwise; changes in a name come on top.
UniProt C4LU56: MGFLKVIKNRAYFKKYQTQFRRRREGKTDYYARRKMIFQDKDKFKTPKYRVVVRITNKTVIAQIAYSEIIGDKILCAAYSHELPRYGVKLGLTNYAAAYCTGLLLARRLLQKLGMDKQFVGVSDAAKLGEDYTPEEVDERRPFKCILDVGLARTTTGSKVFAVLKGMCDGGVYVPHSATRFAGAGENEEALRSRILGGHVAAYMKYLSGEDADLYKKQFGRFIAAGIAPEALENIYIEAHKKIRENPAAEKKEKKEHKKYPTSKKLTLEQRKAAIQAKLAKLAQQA
UniProt C4M1S6: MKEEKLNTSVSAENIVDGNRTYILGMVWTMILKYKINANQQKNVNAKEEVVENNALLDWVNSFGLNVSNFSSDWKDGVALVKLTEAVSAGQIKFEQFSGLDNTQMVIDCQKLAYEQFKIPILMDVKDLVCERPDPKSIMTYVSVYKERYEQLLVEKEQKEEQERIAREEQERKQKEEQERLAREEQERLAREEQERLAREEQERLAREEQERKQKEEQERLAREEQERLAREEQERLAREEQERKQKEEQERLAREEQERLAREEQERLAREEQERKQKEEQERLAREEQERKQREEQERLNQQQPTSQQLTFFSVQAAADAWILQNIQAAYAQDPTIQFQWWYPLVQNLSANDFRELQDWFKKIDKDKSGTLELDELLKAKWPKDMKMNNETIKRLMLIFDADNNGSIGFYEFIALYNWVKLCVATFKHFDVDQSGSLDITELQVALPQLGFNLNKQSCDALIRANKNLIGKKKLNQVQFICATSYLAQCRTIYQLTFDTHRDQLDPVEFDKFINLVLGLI
UniProt B1N3T3: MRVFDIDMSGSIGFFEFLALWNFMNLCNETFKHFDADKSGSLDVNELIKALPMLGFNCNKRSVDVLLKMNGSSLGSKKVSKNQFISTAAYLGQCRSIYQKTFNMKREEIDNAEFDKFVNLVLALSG
UniProt B1N2F9: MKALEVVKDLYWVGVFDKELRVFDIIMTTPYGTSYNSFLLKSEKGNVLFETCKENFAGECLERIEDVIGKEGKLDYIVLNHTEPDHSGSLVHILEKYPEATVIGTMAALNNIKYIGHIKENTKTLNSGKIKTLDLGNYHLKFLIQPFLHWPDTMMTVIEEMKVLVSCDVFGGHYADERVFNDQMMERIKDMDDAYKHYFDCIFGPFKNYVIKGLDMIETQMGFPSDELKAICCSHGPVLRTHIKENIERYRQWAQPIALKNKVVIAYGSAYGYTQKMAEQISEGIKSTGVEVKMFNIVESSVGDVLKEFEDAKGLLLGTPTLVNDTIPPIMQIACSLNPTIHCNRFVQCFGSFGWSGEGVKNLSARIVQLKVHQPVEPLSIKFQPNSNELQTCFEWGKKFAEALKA
UniProt A0A8U0WPG2: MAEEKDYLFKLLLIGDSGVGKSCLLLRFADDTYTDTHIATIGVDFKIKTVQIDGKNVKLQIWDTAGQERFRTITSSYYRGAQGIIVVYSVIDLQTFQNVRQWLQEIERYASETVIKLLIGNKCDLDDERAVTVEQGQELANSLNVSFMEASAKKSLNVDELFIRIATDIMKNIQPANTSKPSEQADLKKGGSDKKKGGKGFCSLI

Assays:
Experiment in all cases: affinity purification with mass spectrometry; GST-tagged bait (or GST control) bound to glutathione-Sepharose (200 μg) incubated with total trophozoite lysate (2 mg), 4 h, 4 °C; SDS-PAGE, silver stain, bands cut, nano UPLC-QToF; hits with reliability above 95%; only the target purified
[1] = biological target: T1, GST-Adh recombinant protein (E. histolytica)
T1 sequence: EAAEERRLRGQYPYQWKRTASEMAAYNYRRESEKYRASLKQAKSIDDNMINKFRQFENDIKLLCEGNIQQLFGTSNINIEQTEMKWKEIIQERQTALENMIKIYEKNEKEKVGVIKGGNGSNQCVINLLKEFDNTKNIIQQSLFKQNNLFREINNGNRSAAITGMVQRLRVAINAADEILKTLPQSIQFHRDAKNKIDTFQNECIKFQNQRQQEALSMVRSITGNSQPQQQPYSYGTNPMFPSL

[2] = biological target: GST-EhADH recombinant protein (E. histolytica)
[3] = biological target: T2, GST-Linker recombinant protein (E. histolytica)
T2 sequence: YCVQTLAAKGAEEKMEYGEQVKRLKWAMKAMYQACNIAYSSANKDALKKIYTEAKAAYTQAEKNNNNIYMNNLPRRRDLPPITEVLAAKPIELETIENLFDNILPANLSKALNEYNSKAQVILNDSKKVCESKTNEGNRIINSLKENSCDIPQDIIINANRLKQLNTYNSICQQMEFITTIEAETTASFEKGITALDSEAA

Question: With “60S ribosomal protein L5 (from UniProt C4LU56)” as the substance, how does the binding [1] read?
Answer: The binding was “binds”.

Question: For “Actinin-like protein (from UniProt C4M1S6)”, which binding [2] is on record?
Answer: Its binding is “binds”.

Question: With EhGrainin 2 (from UniProt B1N3T3) as the substance, how does the binding [2] read?
Answer: The binding was “binds”.

Question: With EhHSP70 (EHI_061640) as the substance, how does the binding [1] read?
Answer: Its binding is “binds”.

Question: How did the binding [1] turn out when “Flavoprotein type A (from UniProt B1N2F9) (enzyme)” was run?
Answer: The binding was “binds”.

Question: With “Rab family GTPase (EHI_108610) (from UniProt A0A8U0WPG2 1-205) (enzyme)” as the substance, how does the binding [2] read?
Answer: The binding was “binds”.

Question: And the binding [3]?
Answer: Its binding is “binds”.
